Results reported in paper PMC11078746 (Nature, 2024).
Several values for one entry are separate records, joined by “and”; a condition that tells them apart may be missing. Equal entries are not always repeated. This continues a long series; more values of the same kind are listed elsewhere.

Test system: SW48 xenografts
Test: SW48 xenograft efficacy, compound 3 p.o. twice daily
Assay type: in vivo
Details: single mouse, listed as WRNi #4
Method: All animal studies were conducted in accordance with ethics and procedures covered by permit BS-2275 and BS-1975 issued by the Kantonales Veterinäramt Basel-Stadt and in strict adherence to guidelines of the Eidgenössisches Tierschutzgesetz and the Eidgenössische Tierschutzverordnung, Switzerland. All animal studies were approved by the internal ethics committee. All animals had access to food and water ad libitum and were identified with transponders. They were housed in a specific-pathogen-free facility in IVC racks under a 12 h–12 h light–dark cycle. To establish cell-line-derived xenograft models, 6–7-week-old female athymic nude (Crl:NU(NCr)-Foxn1^nu) or SCID-BEIGE (CB17.Cg-PrkdcscidLystbg-J/Crl) mice from Charles River were engrafted subcutaneously with 5 million tumour cells in HBSS (H6648, Sigma-Aldrich). For SNU-407, Lovo, IM95, RL95.2, Ishikawa and IGROV-1, the cells were concentrated in 50% Matrigel (354234, Corning). Patient-derived xenografts were induced and expanded by transplantation as previously described. […] For the efficacy experiment, mice were randomized into groups (n = 5–6) for a mean tumour size of 100–150 mm^3. […] Blood samples were collected on day 7 and 91. […] Tumour responses are reported with the measures of tumour volumes from the treatment start. […] Animals were randomized (n = 3) and tumour samples were collected at 0, 1, 4, 8 and 24 h on the first day and then collected 4 h after the last treatment on day 3, 8, 10, 14 (including a 24 h timepoint), 17 and 21. Tumours were excised, weighed, either frozen in liquid nitrogen and cryogenic dry pulverized with the CryoPrep system (model CP-02, Covaris) or processed to FFPE after fixation. […] On day 12, blood samples were collected for PK analysis. On the last day (3 h after the last treatment), tumours were excised, weighed, frozen in liquid nitrogen and cryogenic dry pulverized for PD analysis.

CCc1c(N2CCN(C(=O)c3ncccc3O)CC2)c(=O)n2nc(C3=CCOCC3)nc2n1CC(=O)Nc1ccc(C(F)(F)F)cc1C [compound 3]
Tumour volume (TVol) (15mg/kg BID, day 6): 222.23 mm3 and 432.34 mm3 and 293.76 mm3 and 546.60 mm3 and 369.99 mm3 | Tumour volume (TVol) (15mg/kg BID, day 8): 464.47 mm3 and 551.93 mm3 and 284.89 mm3 and 687.99 mm3 and 362.62 mm3 and 641.62 mm3 and 391.47 mm3 | Tumour volume (TVol) (50mg/kg BID, day 8): 234.24 mm3 and 504.11 mm3 and 198.44 mm3 and 326.79 mm3 and 274.60 mm3 and 319.42 mm3 and 471.32 mm3 | Tumour volume (TVol) (150mg/kg BID, day 8): 189.74 mm3 and 270.64 mm3 and 96.82 mm3 and 179.84 mm3 and 204.54 mm3 and 165.00 mm3 and 270.63 mm3
